Literature values as cited in patent US20120232025A1, “SAFENER DRUG COMBINATIONS FOR USE WITH NMDA […]” (priority 2010, published 2012).
For at least one compound, name, drawing or mass did not settle the structure.

Columns and labels:
[1] = system: neurotoxic side effects of MK-801 or phencyclidine; details: cited from earlier work; for reduction of toxic side effects of MK-801 and PCP: tests on rats
psychotomimetic effects = details: cited from earlier work

Compound	neurotoxic effects of NMDA antagonists in animals ([1]; animals)	reduction of toxic side effects of MK-801 and PCP [1]	psychotomimetic effects of NMDA antagonists in humans (psychotomimetic effects)
CN1CCN(C2=Nc3cc(Cl)ccc3Nc3ccccc32)CC1 [clozapine]	suppressed or prevented	reduce the toxic side effects	suppressed or prevented
Cc1cc2c(s1)Nc1ccccc1N=C2N1CCN(C)CC1 [olanzapine]	–	reduce the toxic side effects	–
